{"source": "the supplement of paper PMC8728848", "binders": {"B1": {"name": "ArathEULS3 TAP (Arabidopsis thaliana) (protein)", "chain": "IDENLYFQGGSMDEKTTGWRGGHVVEGLAGELEQLRARLEHHPQGQREPGGGGSLEITSLYKKAGFMEHHHQHHRHHQRDDGEDDRQSFGVPPPHVDAPPQPHGLYQSQPHFDPYAPTPQAPAPYRSETQFEPHAPPPYRSEPYFETPAPPPSFGHVSHVGHQSPNESYPPEHHRYGGYQQPSNSLLESHGDHSGVTHVAHHSSNQPQSSSGVYHKPDENRLPDNLAGLAGRATVKVYSKAEPNYNLTIRDGKVILAPADPSDEAQHWYKDEKYSTKVKDADGHPCFALVNKATGEAMKHSVGATHPVHLIRYVPDKLDESVLWTESKDFGDGYRTIRMVNNTRLNVDAYHGDSKSGGVRDGTTIVLWDWNKGDNQLWKIFPF"}}, "assay_in_all_cases": "glycan array binding signal (z-score within array); higher = stronger binding", "conditions_in_all_cases": "glycan notation: IUPAC condensed, linker removed", "key": {"[1]": {"molecular_target": "Gal(b1-3)GalNAc(b1-3)Gal(a1-4)Gal(b1-4)Glc", "how_it_was_run": "(§1)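 Columns mapping to the same glycan were averaged after glycan names were converted to IUPAC-condensed notation. The data come from 3228 arrays in the Consortium for Functional Glycomics database, limited to those with an available protein sequence. Binding is reported as a within-array Z-score averaged across arrays of one protein sequence and across linkers.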"}, "[2]": {"molecular_target": "Gal(b1-3)GalNAc(b1-4)Gal(b1-4)Glc", "how_it_was_run": "as §1"}, "[3]": {"molecular_target": "Gal(b1-3)GalNAc(b1-4)[Neu5Ac(a2-3)]Gal(b1-4)Glc", "how_it_was_run": "as §1"}, "Gal(b1-3)GlcNAc": {"molecular_target": "Gal(b1-3)GlcNAc", "how_it_was_run": "as §1"}, "[4]": {"molecular_target": "Gal(b1-3)GlcNAc(a1-3)Gal(b1-4)GlcNAc", "how_it_was_run": "as §1"}, "[5]": {"molecular_target": "Gal(b1-3)GlcNAc(a1-6)Gal(b1-4)GlcNAc", "how_it_was_run": "as §1"}, "Gal(b1-3)GlcNAc(b1-2)Man": {"molecular_target": "Gal(b1-3)GlcNAc(b1-2)Man", "how_it_was_run": "as §1"}, "[6]": {"molecular_target": "Gal(b1-3)GlcNAc(b1-2)Man(a1-3)[Gal(b1-3)GlcNAc(b1-2)Man(a1-6)]Man(b1-4)GlcNAc(b1-4)GlcNAc", "how_it_was_run": "as §1"}, "[7]": {"molecular_target": "Gal(b1-3)GlcNAc(b1-2)Man(a1-3)[Gal(b1-3)GlcNAc(b1-2)Man(a1-6)]Man(b1-4)GlcNAc(b1-4)[Fuc(a1-6)]GlcNAc", "how_it_was_run": "as §1"}, "[8]": {"molecular_target": "Gal(b1-3)GlcNAc(b1-2)Man(a1-3)[GlcNAc(b1-4)][Gal(b1-3)GlcNAc(b1-2)Man(a1-6)]Man(b1-4)GlcNAc(b1-4)GlcNAc", "how_it_was_run": "as §1"}, "[9]": {"molecular_target": "Gal(b1-3)GlcNAc(b1-2)[Gal(b1-3)GlcNAc(b1-6)]Man(a1-6)[Gal(b1-3)GlcNAc(b1-2)Man(a1-3)]Man(b1-4)GlcNAc(b1-4)GlcNAc", "how_it_was_run": "as §1"}, "[10]": {"molecular_target": "Gal(b1-3)GlcNAc(b1-3)Gal(b1-3)GlcNAc", "how_it_was_run": "as §1"}, "[11]": {"molecular_target": "Gal(b1-3)GlcNAc(b1-3)Gal(b1-4)Glc", "how_it_was_run": "as §1"}, "[12]": {"molecular_target": "Gal(b1-3)GlcNAc(b1-3)Gal(b1-4)GlcNAc", "how_it_was_run": "as §1"}, "[13]": {"molecular_target": "Gal(b1-3)GlcNAc(b1-3)Gal(b1-4)GlcNAc(b1-2)Man(a1-3)[Gal(b1-3)GlcNAc(b1-3)Gal(b1-4)GlcNAc(b1-2)Man(a1-6)]Man(b1-4)GlcNAc(b1-4)GlcNAc", "how_it_was_run": "as §1"}, "[14]": {"molecular_target": "Gal(b1-3)GlcNAc(b1-3)Gal(b1-4)GlcNAc(b1-2)[Gal(b1-3)GlcNAc(b1-3)Gal(b1-4)GlcNAc(b1-6)]Man(a1-6)[Gal(b1-3)GlcNAc(b1-3)Gal(b1-4)GlcNAc(b1-2)Man(a1-3)]Man(b1-4)GlcNAc(b1-4)[Fuc(a1-6)]GlcNAc", "how_it_was_run": "as §1"}, "[15]": {"molecular_target": "Gal(b1-3)GlcNAc(b1-3)Gal(b1-4)GlcNAc(b1-3)Gal(b1-4)GlcNAc(b1-2)[Gal(b1-3)GlcNAc(b1-3)Gal(b1-4)GlcNAc(b1-3)Gal(b1-4)GlcNAc(b1-6)]Man(a1-6)[Gal(b1-3)GlcNAc(b1-3)Gal(b1-4)GlcNAc(b1-3)Gal(b1-4)GlcNAc(b1-2)Man(a1-3)]Man(b1-4)GlcNAc(b1-4)[Fuc(a1-6)]GlcNAc", "how_it_was_run": "as §1"}, "[16]": {"molecular_target": "Gal(b1-3)GlcNAc(b1-3)Gal(b1-4)GlcNAc(b1-6)[Gal(b1-3)GlcNAc(b1-3)]Gal(b1-4)Glc", "how_it_was_run": "as §1"}, "[17]": {"molecular_target": "Gal(b1-3)GlcNAc(b1-3)Gal(b1-4)[Fuc(a1-3)]GlcNAc", "how_it_was_run": "as §1"}, "[18]": {"molecular_target": "Gal(b1-3)GlcNAc(b1-3)Gal(b1-4)[Fuc(a1-3)]GlcNAc(b1-6)[Gal(b1-3)GlcNAc(b1-3)]Gal(b1-4)Glc", "how_it_was_run": "as §1"}, "[19]": {"molecular_target": "Gal(b1-3)GlcNAc(b1-3)GalNAc", "how_it_was_run": "as §1"}, "[20]": {"molecular_target": "Gal(b1-3)GlcNAc(b1-6)Gal(b1-4)GlcNAc", "how_it_was_run": "as §1"}, "[21]": {"molecular_target": "Gal(b1-3)GlcNAc(b1-6)GalNAc", "how_it_was_run": "as §1"}, "[22]": {"molecular_target": "Gal(b1-3)GlcNAc(b1-6)[Gal(b1-3)]GalNAc", "how_it_was_run": "as §1"}, "Gal(b1-3)GlcNAc6S": {"molecular_target": "Gal(b1-3)GlcNAc6S", "how_it_was_run": "as §1"}, "[23]": {"molecular_target": "Gal(b1-3)[Fuc(a1-4)]GlcNAc", "how_it_was_run": "as §1"}, "[24]": {"molecular_target": "Gal(b1-3)[Fuc(a1-4)]GlcNAc(b1-2)Man", "how_it_was_run": "as §1"}, "[25]": {"molecular_target": "Gal(b1-3)[Fuc(a1-4)]GlcNAc(b1-2)Man(a1-3)[Gal(b1-3)[Fuc(a1-4)]GlcNAc(b1-2)Man(a1-6)]Man(b1-4)GlcNAc(b1-4)[Fuc(a1-6)]GlcNAc", "how_it_was_run": "as §1"}, "[26]": {"molecular_target": "Gal(b1-3)[Fuc(a1-4)]GlcNAc(b1-3)Gal(b1-3)[Fuc(a1-4)]GlcNAc", "how_it_was_run": "as §1"}, "[27]": {"molecular_target": "Gal(b1-3)[Fuc(a1-4)]GlcNAc(b1-3)Gal(b1-4)[Fuc(a1-3)]GlcNAc", "how_it_was_run": "as §1"}, "[28]": {"molecular_target": "Gal(b1-3)[Fuc(a1-4)]GlcNAc(b1-6)GalNAc", "how_it_was_run": "as §1"}, "[29]": {"molecular_target": "Gal(b1-3)[GlcNAc(b1-6)]GalNAc", "how_it_was_run": "as §1"}, "[30]": {"molecular_target": "Gal(b1-3)[Neu5Ac(a2-6)]GalNAc", "how_it_was_run": "as §1"}, "[31]": {"molecular_target": "Gal(b1-3)[Neu5Ac(a2-6)]GlcNAc(b1-4)Gal(b1-4)Glc", "how_it_was_run": "as §1"}, "[32]": {"molecular_target": "Gal(b1-3)[Neu5Ac(b2-6)]GalNAc", "how_it_was_run": "as §1"}, "Gal(b1-4)Gal": {"molecular_target": "Gal(b1-4)Gal", "how_it_was_run": "as §1"}, "[33]": {"molecular_target": "Gal(b1-4)GalNAc(a1-3)[Fuc(a1-2)]Gal(b1-4)GlcNAc", "how_it_was_run": "as §1"}, "[34]": {"molecular_target": "Gal(b1-4)GalNAc(b1-3)[Fuc(a1-2)]Gal(b1-4)GlcNAc", "how_it_was_run": "as §1"}}, "note": "This is one part of the list."}
{"binder": "B1", "values": [{"measurement": "glycan array binding signal (z-score)", "setting": "[1]", "value": 0.136}, {"measurement": "glycan array binding signal (z-score)", "setting": "[2]", "value": 0.147}, {"measurement": "glycan array binding signal (z-score)", "setting": "[3]", "value": 0.119}, {"measurement": "glycan array binding signal (z-score)", "setting": "Gal(b1-3)GlcNAc", "value": -0.009}, {"measurement": "glycan array binding signal (z-score)", "setting": "[4]", "value": -0.262}, {"measurement": "glycan array binding signal (z-score)", "setting": "[5]", "value": -0.499}, {"measurement": "glycan array binding signal (z-score)", "setting": "Gal(b1-3)GlcNAc(b1-2)Man", "value": 0.695}, {"measurement": "glycan array binding signal (z-score)", "setting": "[6]", "value": 0.989}, {"measurement": "glycan array binding signal (z-score)", "setting": "[7]", "value": 0.333}, {"measurement": "glycan array binding signal (z-score)", "setting": "[8]", "value": -0.649}, {"measurement": "glycan array binding signal (z-score)", "setting": "[9]", "value": -0.195}, {"measurement": "glycan array binding signal (z-score)", "setting": "[10]", "value": 0.63}, {"measurement": "glycan array binding signal (z-score)", "setting": "[11]", "value": -1.41}, {"measurement": "glycan array binding signal (z-score)", "setting": "[12]", "value": -1.64}, {"measurement": "glycan array binding signal (z-score)", "setting": "[13]", "value": -0.446}, {"measurement": "glycan array binding signal (z-score)", "setting": "[14]", "value": 0.246}, {"measurement": "glycan array binding signal (z-score)", "setting": "[15]", "value": 0.305}, {"measurement": "glycan array binding signal (z-score)", "setting": "[16]", "value": 1.84}, {"measurement": "glycan array binding signal (z-score)", "setting": "[17]", "value": 0.039}, {"measurement": "glycan array binding signal (z-score)", "setting": "[18]", "value": -0.934}, {"measurement": "glycan array binding signal (z-score)", "setting": "[19]", "value": -1.54}, {"measurement": "glycan array binding signal (z-score)", "setting": "[20]", "value": -1.14}, {"measurement": "glycan array binding signal (z-score)", "setting": "[21]", "value": -1.34}, {"measurement": "glycan array binding signal (z-score)", "setting": "[22]", "value": -0.73}, {"measurement": "glycan array binding signal (z-score)", "setting": "Gal(b1-3)GlcNAc6S", "value": 1.55}, {"measurement": "glycan array binding signal (z-score)", "setting": "[23]", "value": -0.187}, {"measurement": "glycan array binding signal (z-score)", "setting": "[24]", "value": -0.027}, {"measurement": "glycan array binding signal (z-score)", "setting": "[25]", "value": -0.44}, {"measurement": "glycan array binding signal (z-score)", "setting": "[26]", "value": -0.335}, {"measurement": "glycan array binding signal (z-score)", "setting": "[27]", "value": 0.049}, {"measurement": "glycan array binding signal (z-score)", "setting": "[28]", "value": -0.667}, {"measurement": "glycan array binding signal (z-score)", "setting": "[29]", "value": 0.386}, {"measurement": "glycan array binding signal (z-score)", "setting": "[30]", "value": -0.111}, {"measurement": "glycan array binding signal (z-score)", "setting": "[31]", "value": -0.335}, {"measurement": "glycan array binding signal (z-score)", "setting": "[32]", "value": -0.468}, {"measurement": "glycan array binding signal (z-score)", "setting": "Gal(b1-4)Gal", "value": -0.966}, {"measurement": "glycan array binding signal (z-score)", "setting": "[33]", "value": -0.431}, {"measurement": "glycan array binding signal (z-score)", "setting": "[34]", "value": 1.97}]}
